From article PMC12491506, “Identification of a RAB32-LRMDA-Commander membrane trafficking complex reveals the molecular mechanism of human oculocutaneous albinism type 7” (Nature Communications, 2025)
Substitutions are numbered along the chain they refer to. These are yes or no findings as the source states them, for the method shown. Binding seen in cells or lysates may run through a third protein. Here binding means that the protein was enriched with, or labelled near, the bait; the list need not be complete. For some of these results: A no says only that the protein was not detected with the bait. Tags and fused reporters may be left off the sequences shown.

Experiments:
GFP-LRMDA (human) [1] = target: T1, GFP-LRMDA (human); test: affinity purification with mass spectrometry; GFP-trap from MNT1 cells stably transduced with GFP, GFP-LRMDA or GFP-VPS26C; TMT proteomics (Supplementary Fig. 4A, Fig. 6A)
T1 sequence: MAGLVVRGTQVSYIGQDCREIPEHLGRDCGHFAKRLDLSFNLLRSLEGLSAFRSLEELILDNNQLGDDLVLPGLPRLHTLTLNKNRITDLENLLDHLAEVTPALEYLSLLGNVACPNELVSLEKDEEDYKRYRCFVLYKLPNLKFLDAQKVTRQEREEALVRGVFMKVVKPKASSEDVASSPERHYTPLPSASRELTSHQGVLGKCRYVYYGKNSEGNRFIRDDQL

GFP-LRMDA L226G (human) = target: T2, GFP-LRMDA L226G (human); test: affinity purification with mass spectrometry; GFP-trap from RPE1-hTERT cells stably transduced with GFP, GFP-LRMDA, GFP-LRMDA F145D or L226G; TMT proteomics (Figs 1E, 4A, 4B)
T2 sequence: T1 sequence with L226G

GFP-LRMDA (human) [2] = target: T1, GFP-LRMDA (human); test: as above
GFP-LRMDA F145D (human) = target: T3, GFP-LRMDA F145D (human); test: as above
T3 sequence: T1 sequence with F145D

B1: recombinant RAB32 (tag-less) (natural protein, human, UniProt Q13637 1-225, looked up)
chain: MAGGGAGDPGLGAAAAPAPETREHLFKVLVIGELGVGKTSIIKRYVHQLFSQHYRATIGVDFALKVLNWDSRTLVRLQLWDIAGQERFGNMTRVYYKEAVGAFVVFDISRSSTFEAVLKWKSDLDSKVHLPNGSPIPAVLLANKCDQNKDSSQSPSQVDQFCKEHGFAGWFETSAKDNINIEEAARFLVEKILVNHQSFPNEENDVDKIKLDQETLRAENKSQCC
notes: RAB32, human, full-length; also called purified RAB32; GST-TEV-RAB32 after TEV cleavage; source: Sf21 insect cells (baculovirus), purified (Glutathione Sepharose 4b, TEV cleavage); not shown: GST, N-terminal, cleaved
GFP-LRMDA (human) [1]
  binding: binds
GFP-LRMDA L226G (human)
  binding: binds
GFP-LRMDA (human) [2]
  binding: binds
GFP-LRMDA F145D (human)
  binding: no binding
